How the values were obtained:
[1] = tested on: Trypanosoma cruzi epimastigotes (Tulahuen strain); test: Growth inhibition of epimastigotes (cell counting, 4 days); assay type: cell-based; settings: for Epimastigotes SI: CC50 Vero cells / IC50 epimastigotes
Procedure: (§1) Trypanosoma cruzi epimastigotes (Tulahuen strain) were grown as previously described. Bloodstream trypomastigotes were obtained from infected CF1 mice by cardiac puncture. Tulahuen strain expressing the β-galactosidase gene was kindly provided by Dr Buckner (University of Washington, USA).
Cells growth was assessed by counting the number of cells per mL of culture using a Neubauer chamber and was expressed as cellular density (CD). The percentage of inhibition (%I) was calculated as %I = {1 − [(CD4t − CD0)/(CD4c − CD0)]} × 100, where the different CDs represent the cellular density of CD4t, treated parasites on day 4; CD0, parasites on day 0; and CD4c, untreated parasites (control) on day 4.
(§2) The results presented are representative of three to four separate experiments, performed in duplicates or triplicates. All data are expressed as means ± standard errors of the mean (SEM). To calculate the IC50 values, the %I or %L values were plotted against the log of drug concentration (μM) and fitted with a straight line determined by a linear regression (Sigma Plot 10 software). The significance of differences was evaluated using Student' t test, taking a P < 0.05 as significant. Flow cytometry data were analyzed employing the WinMDI 2.9 software.

[2] = tested on: amastigotes (Tulahuen strain expressing the β-galactosidase gene) in J774 cells; test: Amastigote assay in infected J774 cells (β-galactosidase, CPRG); assay type: cell-based, Trypanosoma cruzi; settings: CC50 Vero cells / IC50 amastigotes
Procedure: as §1
For analysis of amastigotes, J774 cells were infected with bloodstream trypomastigotes expressing the β-galactosidase gene at a parasite: cell ratio of 10 : 1. After 24 h, cell cultures were washed and each compound (2 to 100 μM) was added in fresh RPMI medium without phenol red (to avoid interference with absorbance readings at 570 nm). After 7 days, the assay was developed as described. The galactosidase activity was quantified using CPRG as substrate and measuring absorbance at 570 nm in a Microplate Reader (Bio-Rad Laboratories). Since the assayed compounds are coloured, blanks including uninfected cells with different doses of each compound were performed. The percentage of inhibition was calculated as %I = {1 − [(A it − A nit)/(A ic − A nic)]} × 100, where A represents the mean A 570 value recorded for A it, treated infected cells; A nit, treated noninfected cells; A ic, untreated infected cells; and A nic, untreated noninfected cells.
as §2

SMILES | Epimastigotes SI [1] | times more active than Bnz on the epimastigote form ([1]; from IC50 values of Table 1) [times] | Amastigotes SI [2]
O=C(Cn1ccnc1[N+](=O)[O-])NCc1ccccc1 [Bnz, Benznidazole, reference compound] | 15.1 |  | 
O=c1c2ccccc2c(C(=S)Nc2ccccc2)c2n1CCN2 [Compound C1, N-phenyl-5-oxo-1,2,3,5-tetrahydroimidazo[1,2-b]isoquinolin-10-carbothioamide] | >67.1 | 3.5 | >57.5
O=c1c2ccccc2c(C(=S)Nc2ccc(Cl)cc2)c2n1CCN2 [Compound C2, N-(4-chlorophenyl)-5-oxo-1,2,3,5-tetrahydroimidazo[1,2-b]isoquinolin-10-carbothioamide] | >18.0 |  | >27.5
Cc1ccc(NC(=S)c2c3n(c(=O)c4ccccc24)CCN3)cc1 [Compound C3] | >66.7 |  | >66.7
